Laboratory results: the odorant receptor screen of Mainland et al. (2015)
Values joined by “and” are separate entries in the source; they are usually repeats but may differ in a detail not shown here. Identical values can stand only once. The list shows a part of the results. Each value is one well over the wells without odorant, computed here; the data are noisy.

Legend:
Assay in all cases: odorant receptor activation (CRE luciferase / Renilla) (fold of no-odor wells); higher = more activation
Details in all cases: 100 µM
OR5M1 S282T clone 1208 = tested on: OR5M1 S282T clone 1208
OR5M10 V69L clone 1125 = tested on: OR5M10 V69L clone 1125
OR5M11 clone 1236 = tested on: OR5M11 clone 1236
OR5M8 clone 1523 = tested on: OR5M8 clone 1523
OR5M9 clone 1194 = tested on: OR5M9 clone 1194
OR5P2 clone 1185 = tested on: OR5P2 clone 1185
OR5P3 clone 1115 = tested on: OR5P3 clone 1115
OR5R1 clone 1162 = tested on: OR5R1 clone 1162
OR5T1 clone 1249 = tested on: OR5T1 clone 1249
OR5T1 clone 1399 = tested on: OR5T1 clone 1399

SMILES | odorant receptor activation (OR5M1 S282T clone 1208) | odorant receptor activation (OR5M10 V69L clone 1125) | odorant receptor activation (OR5M11 clone 1236) | odorant receptor activation (OR5M8 clone 1523) | odorant receptor activation (OR5M9 clone 1194) | odorant receptor activation (OR5P2 clone 1185) | odorant receptor activation (OR5P3 clone 1115) | odorant receptor activation (OR5R1 clone 1162) | odorant receptor activation (OR5T1 clone 1249) | odorant receptor activation (OR5T1 clone 1399)
CC(C)=CCCC(C)=CC=O [citral] | 1.06 | 0.941 | 1.14 | 1.08 | 1.35 | 1.19 | 0.993 | 1.07 | 1.1 | 0.268
C=CCc1ccc(O)c(OC)c1 [eugenol] | 1.36 and 1.09 | 1.15 | 1.08 | 0.662 and 1.09 and 1 | 1.46 and 1.25 | 1.75 and 1.5 | 1.93 and 1.38 | 1.95 and 1.45 | 0.588 and 1.19 | 1.07 and 0.996
CCCC(=O)O [butyric acid] | 1.3 | 1.05 | 0.877 | 1.18 | 1.23 | 1.36 | 1.05 | 1.03 | 1.07 | 0.21
COc1cc(C=O)ccc1O [vanillin] | 0.828 | 0.846 | 0.599 | 0.971 | 1.13 | 1.36 | 0.864 | 0.86 | 0.947 | 0.98
CC(=O)C(C)=O [diacetyl] | 1.07 | 1.21 | 0.843 | 1.05 | 0.892 | 1.26 | 0.895 | 1.33 | 1 | 1.06
CC(C)C=O [isobutyraldehyde] | 1.07 | 0.673 | 0.972 | 0.876 and 1.05 | 1.11 | 1.15 | 0.668 | 1.09 | 1.18 and 1.51 | 0.891
CCCCCCCCCC=O [decyl aldehyde] | 1.22 | 1.03 | 0.808 | 0.908 | 1.2 | 1.52 | 1.14 | 1.34 | 1.06 | 1.05
O=C1CCCCCCCCCCCC(=O)OCCO1 [ethylene brassylate] | 1.81 | 1.24 | 1 | 1.16 | 1.77 | 3.01 | 2.02 | 2.04 | 1.73 | 1.32
c1ccc(Oc2ccccc2)cc1 [diphenyl ether] | 0.825 | 1.14 | 0.847 | 0.727 | 0.822 | 1.19 | 0.843 | 1.01 | 0.972 | 0.849
CCCCCC(=O)O [caproic acid] | 1.39 | 0.807 | 0.961 | 1.02 | 1.21 | 1.12 | 0.807 | 1.13 | 0.844 | 0.197
CC=Cc1ccc(O)c(OC)c1 [isoeugenol] | 2.27 | 2.42 | 5.35 | 1.05 and 1.85 | 2.01 | 2 | 1.58 | 1.19 | 1.73 and 1.51 | 1.34
CCCCCCCCC=O [nonyl aldehyde] | 0.965 | 1.22 | 0.819 | 0.828 | 0.991 | 0.981 | 1.63 | 0.912 | 1.01 | 0.794
CCCCCCOC(=O)CCC [hexyl butyrate] | 1.21 | 1.04 | 0.99 | 1.04 and 0.952 | 0.966 | 1.01 | 1.13 | 0.989 | 0.793 and 1.09 | 0.8
CC1CCC(C(C)C)C(O)C1 (single isomer, unassigned; (+)) [(+)-menthol] | 1.01 | 0.989 | 1.29 | 1.14 | 1.05 | 1.16 | 5.34 | 1.21 | 1.17 | 1.1
CC(=O)OC(C)(C)C1CC=C(C)CC1 (stereo not given) [terpinyl acetate] | 0.857 | 0.836 | 1.03 | 0.651 | 1.08 | 1.14 | 1.05 | 0.966 | 1 | 1.08
C=CCc1ccc(OC(C)=O)c(OC)c1 [eugenol acetate] | 1.42 | 1.21 | 1.31 | 1.09 | 1.71 | 2.69 | 1.81 | 2.18 | 1.72 | 1.5
CC1=CCC(C(C)(C)O)CC1 (stereo not given) [terpineol] | 0.736 | 0.866 | 0.886 | 0.888 | 1.1 | 1.28 | 1.76 | 1.18 | 0.744 | 1.25
CCCCCOC(C)=O [n-amyl acetate] | 0.561 | 0.843 | 0.802 | 0.773 and 0.98 | 0.323 | 0.364 | 1.26 | 0.561 | 0.271 | 0.826
O=C1CCCCCCCCCCCCCCO1 [pentadecalactone] | 0.727 | 1.11 | 0.961 | 0.971 | 0.706 | 0.86 | 0.765 | 0.746 | 0.79 | 1.22
c1cnccn1 [pyrazine] | 0.778 | 1.06 | 0.916 | 0.671 | 0.81 | 1.09 | 0.843 | 0.765 | 0.762 | 1.26
CCC1(O)C2(C)CCC(C2)C1(C)C (stereo not given) [2-ethylfenchol] | 0.974 | 0.959 | 0.582 | 1.18 | 1.21 | 1.06 | 6.63 | 0.854 | 0.925 | 1.43
CC12CCC(C1)C(C)(C)C2=O (stereo not given) [fenchone] | 0.837 | 1.32 | 1.09 | 1.09 | 0.951 | 1.12 | 0.915 | 1.09 | 1.11 | 0.803
COc1ccccc1O [guaiacol] | 1.07 | 1.28 | 0.964 | 0.797 and 1.07 | 1.2 | 1.09 | 0.935 | 1.12 | 1.19 and 1.11 | 0.821
CCCCCCCC=CC=O [2-decenal] | 0.895 | 1.13 | 0.963 | 1.15 | 0.886 | 0.914 | 5.64 | 1.17 | 0.643 | 2.64
CC12CCC(CC1)C(C)(C)O2 [cineole] | 1.01 | 0.743 | 0.839 | 1 | 0.979 | 0.906 | 0.963 | 0.787 | 1.06 | 0.189
CC(=O)OCC=C(C)CCC=C(C)C [geranyl acetate] | 1.36 | 2.31 | 2.17 | 0.839 and 1.57 | 1.58 | 1.45 | 0.763 | 0.833 | 1.15 and 1.36 | 1.07
